From PubChem BioAssay AID1487 (National Center for Advancing Translational Sciences (NCATS), 2009) come the findings set out here.

The nature of the test: qHTS Assay for Modulators of Lamin A Splicing. The following applies: HeLa LMNA splicing GFP/RFP minigene ratio, 48 h. Put shortly:
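S3 HeLa stable clones carrying a lamin A-EGFP splicing minigene plus DsRed2 were seeded at 600 cells/well in Opti-MEM with 2% FBS, pin-dosed and incubated 48 h at 37°C. Acumen cytometry (488 nm) gave the GFP/RFP total-intensity ratio.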
(Quantitative high-throughput screening tests each substance at several concentrations.)

[1] abbreviates: measured here: RFP viability control channel.
[2] abbreviates: measured here: GFP splicing reporter channel.

Structures are written as SMILES. Some of the results follow. The main result of the screen is listed elsewhere. These columns were measured beside it and carry no call. The list favours compounds with an active or inconclusive main result. Potencies come from curve fits of mixed quality, noted in brackets.

One may read the AC50 as the concentration at which the activity in the assay is half-maximal. As for `CCOc1cc(-c2cc(-c3ccccc3)nc(N)c2C#N)ccc1O`, the AC50 under setting [1] was 15.8 µM [rising, single point].
On the same count and under the same terms, then `COc1ccc(NS(=O)(=O)/C=C/c2ccccc2)cc1`, with 35.5 µM [rising, single point]; and `COc1ccc(/C=N/Nc2cn[nH]c(=O)c2Cl)cc1`, with 22.4 µM [falling, partial curve, poor fit].
Consider `Cc1c(C(=O)N2CCCCC2)nn(-c2ccc(Cl)cc2)c(=O)c1C#N`, for which the AC50 under setting [1] is 1.26 µM [falling, partial curve, poor fit].
As to `O=C(COc1ccc2ccccc2c1)Nc1cccc(C(=O)Nc2ccccc2C(=O)O)c1`, the AC50 under setting [1] was 22.4 µM [rising, partial curve, poor fit].
For the compound `CN(Cc1ccccc1)C(=O)C1CCCN(Cc2ccc(Cl)cc2)C1` (configuration not stated), under setting [2], the AC50 is 5.01 µM [rising, single point].
Regarding `COc1ccccc1N1CCN(C(=O)c2ccc(CSc3ccccc3)cc2)CC1`, the AC50 was 0.1 µM [rising, full curve, poor fit] under setting [2] and 20 µM [rising, partial curve, poor fit] under setting [1].
As to `Cc1ccc(C(C(=O)NC2CCCC2)N(Cc2cccnc2)C(=O)c2snc(C(N)=O)c2N)o1` (configuration not stated), the AC50 under setting [1] was 3.16 µM [rising, single point].
Take `CN1CCN(C(=O)CSc2nc(-c3cccs3)cc(-c3cccs3)c2C#N)CC1`: the AC50 reads like this: under setting [2], 35.5 µM [rising, single point]; under setting [1], 35.5 µM [rising, single point].
Take `O=C(COC(=O)Cc1ccc(Cl)cc1)Nc1c(F)cccc1F`: the AC50 under setting [2] was 35.5 µM [falling, partial curve].
`CCCCCCCCC[n+]1cccc2c3ccccc3ccc21`: the AC50 was 11.2 µM [falling, single point] under setting [2] and 20 µM [falling, partial curve, poor fit] under setting [1].
Take `Cc1cc(NC(=O)NCc2ccc3c(c2)CCN3C(=O)c2ccccc2)ccc1Br`: the AC50 under setting [2] was 6.31 µM [falling, single point].
For the compound `Cn1c(=O)n(C)c2cc([N+](=O)[O-])c(N3CCN(S(=O)(=O)c4ccccc4)CC3)cc21`, the AC50 is 22.4 µM [rising, single point] under setting [2] and 22.4 µM [rising, partial curve, poor fit] under setting [1].
As to `O=C(COC(=O)c1cccnc1)c1ccc(Cl)cc1`, the AC50 under setting [1] was 5.62 µM [rising, single point].
`COc1ccc(NC(=O)Cn2c(C)cc(=O)c3ccccc32)cc1`: the AC50 under setting [1] was 4.47 µM [rising, full curve].
For `Cc1cc(C)nc(N/N=C/c2ccccc2OCc2ccc(Br)cc2)n1`, the AC50 under setting [2] was 0.00447 µM [rising, full curve, poor fit] and the AC50 under setting [1] was 35.5 µM [rising, single point].
As for `CC(C)[C@@H](N)C(=O)O`, the AC50 was 7.94 µM [rising, partial curve, poor fit] under setting [2] and 20 µM [rising, partial curve, poor fit] under setting [1].
As for `O=C(CSc1nnc(-c2ccccc2)o1)NCC1CCCCC1`, the AC50 under setting [2] was 0.0562 µM [rising, full curve, poor fit].
Regarding `CCC1Sc2ccccc2N(CC(=O)NCc2ccccc2OC)C1=O` (configuration not stated), the AC50 is, setting by setting: under setting [2], 31.6 µM [rising, single point]; under setting [1], 31.6 µM [rising, single point].
Regarding `Cc1cc2nc(C)n(CCCNC(=O)Nc3cccc4ccccc34)c2cc1C`, the half-maximal activity concentration (AC50) under setting [1] was 25.1 µM [rising, single point].
With `CCC(C)n1c(=O)c(C(=O)Nc2ccccc2S(N)(=O)=O)c(O)c2ccccc21` (configuration not stated), the AC50 under setting [1] was 12.6 µM [rising, single point].
Same read-out and setting: the result for `Cc1ccc(OCC(=O)N/N=C/C=C/c2ccco2)cc1C` reads 0.0355 µM [rising, full curve, poor fit].
On the same count and under the same terms, the result for `COc1ccc(O[C@H]2C=C[C@@H](c3ccccc3)O[C@@H]2CO/N=C(\C)CCC(=O)OC[C@H]2O[C@H](c3ccccc3)C=C[C@@H]2Oc2ccc(OC)cc2)cc1` reads 3.98 µM [rising, single point].
As for `COc1ccc(CNc2ccnc(-c3cccc(C#N)c3)n2)c(OC)c1`, the AC50 is, setting by setting: under setting [2], 7.08 µM [falling, partial curve]; under setting [1], 15.8 µM [falling, partial curve].
As for `O=c1cc(CN2CCN(c3cccc(Cl)c3)CC2)c2cc(O)c(-c3ccccc3)cc2o1`, the AC50 under setting [2] was 35.5 µM [falling, single point].
Regarding `CCOc1ccc(NC(=O)c2c(NCc3sccc3C)sc3c2CCCCC3)cc1`, the AC50 by setting is: under setting [2], 1.12 µM [rising, partial curve, poor fit]; under setting [1], 35.5 µM [rising, partial curve].
For `COc1ccc(CCNC(=O)COc2ccc(S(=O)(=O)NC3CCCCC3)cc2Cl)cc1OC`, the AC50 runs as follows: under setting [2], 31.6 µM [rising, single point]; under setting [1], 28.2 µM [rising, single point].
As to `Cc1c(NS(=O)(=O)c2ccc3c(c2)Cc2ccccc2-3)c(=O)n(-c2ccccc2)n1C`, the AC50 is, setting by setting: under setting [2], 0.0708 µM [rising, full curve, poor fit]; under setting [1], 5.01 µM [rising, partial curve, poor fit].
Regarding `CC(=O)Nc1cccc(NC(=O)CSc2ccc(-c3cccnc3)nn2)c1`, the AC50 runs as follows: under setting [2], 35.5 µM [falling, partial curve, poor fit]; under setting [1], 1.58 µM [falling, partial curve, poor fit].
In the case of `CCCOc1ccc(C(=O)N2CCN(c3ccc(NC(=O)CC)cc3Cl)CC2)cc1`, the AC50 under setting [1] is 12.6 µM [rising, single point].
For `Cc1ccc(Cn2c(=N)n(CC(O)COc3ccccc3)c3ccccc32)cc1` (configuration not stated), under setting [1], the AC50 is 20 µM [rising, single point].
On to `O=C(CSc1nc2c([nH]c3ccccc32)c(=O)n1-c1ccc(F)cc1)NC1CCCCC1`, for which the half-maximal activity concentration (AC50) by setting is: under setting [2], 22.4 µM [falling, single point]; under setting [1], 22.4 µM [falling, partial curve].
For `CCOn1c(=O)c(-c2ccc(OC)c(OC)c2)[n+]([O-])c2ccccc21`, the AC50 under setting [1] is 0.398 µM [falling, full curve, poor fit].
Consider `O=C(CC1S/C(=N/N=C/c2c[nH]c3ccccc23)NC1=O)Nc1ccccc1` (configuration not stated), for which, under setting [2], the AC50 was 15.8 µM [rising, partial curve, poor fit].
